The values below come from PubChem BioAssay AID2685 (National Center for Advancing Translational Sciences (NCATS), 2010).

The experiment in a line: qHTS Assay for Lipid Storage Modulators in Drosophila S3 Cells.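 For cell number change: cells counted by Cell Tracker Red CMTPX staining in the red channel.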 The note with it: BODIPY lipid droplet fluorescence, 18-24 h; for cell number change: measured here: cell count max response, cells fed with added oleic acid. A digest of the protocol:
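Laser-scanning cytometry quantifies lipid droplet accumulation (500–530 nm total intensity; droplet/cell object ratio) in oleic acid-fed (400 uM added) Drosophila S3 cells treated with a concentration series. 20 uM Triacsin C defined 100% inhibition.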
In general terms: In qHTS, concentration-response curves come from the screen itself.

[1] abbreviates: measured here: lipid fluorescence (Fed channel) AC50, cells fed with added oleic acid.
[2] abbreviates: measured here: cell number channel AC50, cells fed with added oleic acid.

Each structure is given as a SMILES string. Some of the results follow. Further columns of the screen follow, without active or inactive calls. Most of these compounds were active or inconclusive in the main read-out, so they are no random draw. Words in brackets tell the shape of the fitted curve; partial curves, single points and poor fits give uncertain potencies.

Broadly, the AC50 is the concentration giving half of the maximal activity seen. Higher therefore signals activity only at high concentration. `COc1ccc(S(=O)(=O)N2CC(C)N(C(=O)N(C)C)C2C)cc1` (centres undefined): the cell number change came out at 5.46%. Under setting [1], the half-maximal activity concentration (AC50) was 2.91 µM [falling, single point].

As to `O=C(NC(c1ccccc1)c1ccccc1)c1ccc(Br)o1`, the cell number change was 2.09%. As for `CCCOc1nnnn1-c1ccccc1`, the cell number change was -27.8%. For the same molecule, under setting [2], the half-maximal activity concentration (AC50) is 0.092 µM [falling, full curve, poor fit]. On to `O=C(c1ccc2c(c1)OCO2)N(c1ccc(F)cc1)C1C=CS(=O)(=O)C1` (centres undefined), for which the cell number change was -21.8%. The concentration at half-maximal activity (AC50) under setting [1] is 2.59 µM [rising, single point]. As for `Cn1nnc2cc(C(=O)NCCC3=CCCCC3)ccc21`, the cell number change was 8.06%. As to `CCOC(=O)c1sc(NNC(=O)c2ccc(F)cc2)nc1C`, the cell number change was -33.8%. Moreover, the AC50 under setting [2] was 32.6 µM [falling, single point]. As to `Cc1oc(-c2ccccc2F)nc1CN1CCC(C(=O)NCc2ccco2)CC1`, the cell number change was found to be 19.9%. The concentration at half-maximal activity (AC50) under setting [1] is 18.4 µM [rising, single point]. Turning to `COc1ccccc1N1CCN(C(=O)C(=O)c2c[nH]c3ccccc23)CC1`, the cell number change came out at 29.7%. Also, the AC50 under setting [1] is 6.51 µM [rising, single point].

`CCN(CC)S(=O)(=O)c1ccc(/C=C/C(=O)OCC(=O)NCc2ccc3c(c2)OCO3)cc1`: the half-maximal activity concentration (AC50) runs as follows: under setting [2], 1.84 µM [rising, partial curve]; under setting [1], 2.06 µM [rising, single point]. Regarding `COc1ccc(CCNC(=O)CSCc2ccc([N+](=O)[O-])cc2)cc1OC`, the AC50 under setting [2] was 6.51 µM [rising, single point]. Regarding `CCCCCc1c(C)nc(Nc2ccc(F)cc2)[nH]c1=O`, the cell number change was -65.2%. Further, the AC50 under setting [2] was 32.6 µM [falling, single point]. The AC50 under setting [1] is 0.206 µM [falling, full curve]. As for `Cc1nc(-c2ccc(F)cc2)c(CC(=O)N2CCN(S(=O)(=O)c3cccc([N+](=O)[O-])c3)CC2)s1`, the half-maximal activity concentration (AC50) under setting [2] was 2.91 µM [rising, partial curve, poor fit]. With `CCOc1ccccc1NC(=O)C(OC(=O)c1ccc(CC)cc1)c1ccccc1` (centres undefined), the AC50 was 2.06 µM [rising, partial curve] under setting [2] and 0.58 µM [rising, full curve, poor fit] under setting [1]. For `COCc1nnc(NC(=O)CS(=O)(=O)Cc2ccccc2)s1`, the concentration at half-maximal activity (AC50) under setting [1] was 0.00411 µM [rising, full curve, poor fit]. For the molecule `Cc1nnsc1SCCNC(=O)c1ccc(F)cc1`, the half-maximal activity concentration (AC50) under setting [1] is 6.51 µM [rising, single point]. In the case of `COC(=O)c1ccc(NC(=O)c2cccc(N3C(=O)C4C5C=CC(C6CC56)C4C3=O)c2)cc1` (centres undefined), the cell number change was -4.86%.

Consider `Cc1ccccc1NC(=O)c1ccc2c(c1)OCCO2`, for which the cell number change worked out at 10.4%. Also, the AC50 under setting [1] is 9.2 µM [rising, partial curve]. In the case of `O=C(Nc1cccc(F)c1)NC1CC2CCCC(C1)N2C1CC1` (centres undefined), the cell number change is -7.41%. On to `Cc1cccc(NC(=O)COC(=O)CCc2c[nH]c3ccccc23)c1C`, for which the cell number change is -1.69%. The AC50 under setting [1] was 0.146 µM [rising, full curve, poor fit]. For `Cc1csc(NC(=O)c2cc(-c3ccco3)nc3ccccc23)n1`, the cell number change is -0.751%. Also, the AC50 under setting [1] is 2.06 µM [falling, single point]. With `CCN(CC(=O)NC1CCS(=O)(=O)C1)C(=O)c1ccc(OC)c([N+](=O)[O-])c1` (centres undefined), the cell number change was -43.6%. For the same molecule, the AC50 under setting [2] was 2.91 µM [falling, full curve]. Besides, under setting [1], the concentration at half-maximal activity (AC50) is 3.66 µM [falling, full curve].

Consider `CC1=C(C(=O)OCc2ccccc2)C(c2ccc(Cl)cc2)NC(=O)N1C` (centres undefined), for which the cell number change is -32.3%. The concentration at half-maximal activity (AC50) under setting [2] is 16.4 µM [falling, partial curve, poor fit]. Take `NS(=O)(=O)c1ccc(Sc2ccc3c(c2)CCC3)nc1`: the cell number change was -1.9%. As to `CCCCN(C(=O)Cc1cccc(F)c1)c1c(N)n(CCC)c(=O)[nH]c1=O`, the AC50 under setting [1] was 0.103 µM [rising, full curve, poor fit].

On to `O=C1NC(=O)/C(=C/c2ccccn2)S1`, for which the cell number change is -27.3%. Moreover, the AC50 under setting [2] is 0.82 µM [falling, full curve, poor fit]. Moreover, under setting [1], the concentration at half-maximal activity (AC50) is 0.82 µM [falling, full curve]. `O=C(CCn1c(=S)oc2ccccc21)Nc1ccc(F)cc1`: the cell number change was -23.4%. For the same molecule, the AC50 under setting [1] was 29.1 µM [falling, single point]. For the molecule `Cc1ccc(CN(C)C(=O)c2ccc(S(=O)(=O)N3CCCCCC3)cc2)o1`, the cell number change is -20.9%. Further, the concentration at half-maximal activity (AC50) under setting [1] is 1.84 µM [falling, partial curve]. For the molecule `Cc1cc(C)nc(NC(=O)c2csnn2)c1`, the AC50 under setting [2] was 0.731 µM [rising, single point]. `COc1ccc(N2C(=NC(=O)c3ccccc3)SC3CS(=O)(=O)CC32)cc1` (centres undefined): the cell number change came out at 36.5%. For the same molecule, the AC50 under setting [2] was 29.1 µM [rising, single point]. As to `O=C(Nc1c2c(nn1-c1ccccc1)CS(=O)C2)c1ccc(Br)o1` (centres undefined), the cell number change was -3%. For `COC(=O)c1ccc(NC(=O)CCc2c(C)nc3ncnn3c2C)cc1`, the cell number change came to 27.4%. Further, the half-maximal activity concentration (AC50) under setting [1] was 16.4 µM [rising, single point]. As for `CCCN1C(=O)c2ccc(C(=O)NCc3ccco3)cc2C1=O`, the cell number change amounted to 154%. Moreover, the AC50 under setting [2] was 18.4 µM [rising, single point]. Further, the AC50 under setting [1] is 0.0517 µM [falling, full curve, poor fit].

In the case of `CCc1c(C)nc2cc(-c3cc(OC)cc(OC)c3)nn2c1N1CCN(CCN2CCOCC2)CC1`, the cell number change is -10.2%. Besides, the AC50 under setting [1] was 1.3 µM [falling, full curve, poor fit]. As to `CCc1cc(C(=O)N(CC(C)C)c2c(N)n(Cc3ccccc3)c(=O)[nH]c2=O)sc1C`, the cell number change was -19%. Moreover, the concentration at half-maximal activity (AC50) under setting [1] is 0.058 µM [falling, full curve, poor fit]. For `COCCNC(=O)/C(C#N)=C/c1nc(N(C)C)n(-c2ccc(F)cc2)c1Cl`, the AC50 was 0.58 µM [falling, single point] under setting [2] and 0.58 µM [falling, single point] under setting [1].

Take `NC(=O)c1c(NC(=O)Cn2cc([N+](=O)[O-])cn2)sc2c1CCCC2`: the cell number change came to 52.1%. In addition, the AC50 under setting [2] was 3.26 µM [rising, partial curve, poor fit]. Besides, the AC50 under setting [1] was 29.1 µM [rising, single point]. `CCCNC(=O)Nc1ccsc1C(=O)OC`: the cell number change amounted to 21.6%. Also, the AC50 under setting [2] was 6.51 µM [rising, single point]. Moreover, the AC50 under setting [1] was 6.51 µM [rising, partial curve, poor fit]. For `CCCCNc1c(-c2ccc(OC)c(SC3CCCCC3)c2)nc2cnccn12`, the cell number change is -61.8%. Further, under setting [2], the AC50 is 13 µM [falling, partial curve]. Regarding `CCOC(=O)c1cnc(SC)nc1Sc1ccccc1`, the cell number change came out at 49.3%. Moreover, the AC50 under setting [2] is 29.1 µM [rising, single point]. Further, the half-maximal activity concentration (AC50) under setting [1] was 2.59 µM [falling, partial curve]. As to `CCOC(=O)C1=CN(CC2CCCO2)C=C(C(=O)OCC)C1c1ccccc1C(F)(F)F` (centres undefined), the cell number change is -31.1%. Moreover, under setting [2], the half-maximal activity concentration (AC50) is 29.1 µM [falling, single point].

As to `Cc1nn(CC(=O)N2CCC(N3CCCCC3)CC2)c(=O)c2c1sc1ccccc12`, the cell number change worked out at 0.306%. In addition, the AC50 under setting [1] is 29.1 µM [rising, single point]. `COCCNC(=O)c1ccc2c(c1)nc(C)n2-c1cccc(Cl)c1`: the cell number change was 15.8%. In addition, the AC50 under setting [1] was 5.17 µM [rising, full curve, poor fit]. `CC(=O)Nc1ccc2[nH]c(C)c(CC=C(Cl)Cl)c(=O)c2c1`: the AC50 under setting [1] was 3.26 µM [rising, partial curve].

As for `Cc1nnc(SCC(=O)N2c3ccccc3CC2C)[nH]c1=O` (centres undefined), the cell number change was 12.9%. For the molecule `COc1ccccc1NC(=O)c1ccc(-c2ccc(Br)cc2)o1`, the cell number change was -66.5%. Besides, under setting [2], the half-maximal activity concentration (AC50) was 29.1 µM [falling, single point]. The AC50 under setting [1] was 3.66 µM [rising, single point]. For the molecule `COc1ccc(NC(=O)c2cc(=O)[nH]c3ccccc23)cc1`, the cell number change was 19.4%. Besides, the AC50 under setting [1] was 7.31 µM [rising, partial curve, poor fit]. On to `Cc1cccc(NC(=O)c2nc[nH]c2C(=O)N2CCC(C)CC2)c1`, for which the cell number change is -31.3%. The AC50 under setting [2] was 29.1 µM [falling, single point]. For the molecule `O=C(NC1CC1)C1=C[C@@H](c2ccc(Br)cc2)C[C@@H](OCc2ccc(CO)cc2)O1`, the cell number change is 16.6%. The AC50 under setting [1] was 7.31 µM [rising, partial curve, poor fit].

As to `COc1ccc(C(=O)NNC(=O)c2ccc3ccccc3n2)cc1`, the cell number change came to 17.4%. The AC50 under setting [2] was 0.00461 µM [rising, full curve, poor fit]. For the molecule `Cn1c(NCc2cccnc2)nc2c1c(=O)n(Cc1ccccc1F)c(=O)n2C`, the concentration at half-maximal activity (AC50) is 2.06 µM [rising, partial curve] under setting [2] and 0.92 µM [rising, full curve, poor fit] under setting [1]. As to `O=C(CNc1cc(S(=O)(=O)N2CCOCC2)ccc1NCC1CCCO1)Nc1ccccc1F` (centres undefined), the cell number change came to 7.62%. Further, the half-maximal activity concentration (AC50) under setting [1] is 29.1 µM [rising, single point]. For `Cn1c(CCNC(=O)c2cccs2)n[nH]c1=S`, the cell number change was -16.9%. Also, the half-maximal activity concentration (AC50) under setting [2] is 0.651 µM [falling, full curve, poor fit]. For the same molecule, under setting [1], the concentration at half-maximal activity (AC50) was 0.651 µM [falling, full curve, poor fit]. On to `CN1CCN(CCCNC(=O)c2ccc3c(=O)n(CCc4ccccc4)c(=O)[nH]c3c2)CC1`, for which the cell number change was -4.05%. Besides, the concentration at half-maximal activity (AC50) under setting [1] is 0.58 µM [rising, single point]. Consider `Cc1c(OCC(=O)NCc2ccncc2)ccc2c3c(c(=O)oc12)CCC3`, for which the cell number change is -2.36%. Under setting [1], the AC50 was 6.51 µM [falling, single point]. As to `COc1ccc(C(C)=O)cc1COc1cccc2c1OC(C)(C)C2`, the cell number change was determined as 161%. For the same molecule, the AC50 under setting [2] was 23.1 µM [rising, partial curve]. `COc1ccc(OCc2cc(C(=O)N(C)C3CCOC3)no2)c(Cl)c1` (centres undefined): the cell number change was -15.9%. Moreover, under setting [1], the AC50 was 29.1 µM [falling, single point]. With `O=C(NNC1=Nc2ccccc2SC1)c1ccc(Cl)cc1`, the cell number change was -30.6%. The AC50 under setting [1] was 16.4 µM [falling, single point]. Take `N#CCC(=O)N/N=C/c1cn(Cc2ccc(Cl)cc2Cl)c2ccccc12`: the cell number change is -24.1%. In addition, under setting [1], the AC50 is 7.31 µM [falling, partial curve].

As for `O=C(CN1CCN(S(=O)(=O)N2CCOCC2)CC1)Nc1cc(Cl)ccc1Cl`, the cell number change turned out to be 23.1%. Besides, the AC50 under setting [2] was 5.8 µM [rising, single point]. The concentration at half-maximal activity (AC50) under setting [1] was 1.16 µM [falling, partial curve, poor fit].
